Measurements taken from the supplement of paper PMC12823440, “Inhibitors supercharge kinase turnover through native proteolytic circuits” (Nature, 2025).
Structures can show the parent of a compound that is named as a salt. The list shows a part of the results. The calls rarely recur for the same compound in another form.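 Kinases were expressed as nanoluciferase fusions in K562 cells and luminescence was read every 4 h between 2 and 18 h as percent of control, DMSO set to 100% and a positive control to 0%. A time point counts as decreased when the signal drops significantly (2 sigma). The hit call is the authors' own, does not follow from the count of time points alone, and its rule is not shown.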

By UniProt entry, the sequences of proteins in these tests, tags left out. Where a name states a change or a piece, a line headed by the entry shows the natural chain unless it says otherwise.
UniProt P50750, whole entry: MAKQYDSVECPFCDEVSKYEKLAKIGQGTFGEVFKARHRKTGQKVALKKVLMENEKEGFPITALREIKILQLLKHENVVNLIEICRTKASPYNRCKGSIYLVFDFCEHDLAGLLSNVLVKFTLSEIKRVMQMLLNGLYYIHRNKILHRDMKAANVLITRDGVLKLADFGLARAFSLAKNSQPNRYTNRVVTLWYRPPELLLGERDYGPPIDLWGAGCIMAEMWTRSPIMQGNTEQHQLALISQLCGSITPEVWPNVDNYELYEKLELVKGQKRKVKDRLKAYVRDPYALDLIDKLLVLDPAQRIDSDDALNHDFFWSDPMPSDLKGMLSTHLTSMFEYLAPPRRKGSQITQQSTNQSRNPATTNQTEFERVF
UniProt O96017, whole entry: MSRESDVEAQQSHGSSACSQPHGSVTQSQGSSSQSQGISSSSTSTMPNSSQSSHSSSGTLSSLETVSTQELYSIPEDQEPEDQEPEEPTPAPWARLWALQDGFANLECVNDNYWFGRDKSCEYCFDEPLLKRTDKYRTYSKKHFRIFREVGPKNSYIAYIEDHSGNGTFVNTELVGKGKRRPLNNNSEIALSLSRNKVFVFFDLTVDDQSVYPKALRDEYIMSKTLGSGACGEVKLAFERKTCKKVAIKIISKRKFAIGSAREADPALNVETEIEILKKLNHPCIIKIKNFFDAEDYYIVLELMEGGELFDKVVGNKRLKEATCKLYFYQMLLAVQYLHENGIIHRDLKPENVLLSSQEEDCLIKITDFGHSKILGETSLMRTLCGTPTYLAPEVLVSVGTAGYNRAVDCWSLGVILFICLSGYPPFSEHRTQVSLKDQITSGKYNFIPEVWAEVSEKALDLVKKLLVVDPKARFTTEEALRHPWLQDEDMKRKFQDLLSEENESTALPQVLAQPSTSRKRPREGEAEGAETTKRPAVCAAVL
UniProt P07333, whole entry: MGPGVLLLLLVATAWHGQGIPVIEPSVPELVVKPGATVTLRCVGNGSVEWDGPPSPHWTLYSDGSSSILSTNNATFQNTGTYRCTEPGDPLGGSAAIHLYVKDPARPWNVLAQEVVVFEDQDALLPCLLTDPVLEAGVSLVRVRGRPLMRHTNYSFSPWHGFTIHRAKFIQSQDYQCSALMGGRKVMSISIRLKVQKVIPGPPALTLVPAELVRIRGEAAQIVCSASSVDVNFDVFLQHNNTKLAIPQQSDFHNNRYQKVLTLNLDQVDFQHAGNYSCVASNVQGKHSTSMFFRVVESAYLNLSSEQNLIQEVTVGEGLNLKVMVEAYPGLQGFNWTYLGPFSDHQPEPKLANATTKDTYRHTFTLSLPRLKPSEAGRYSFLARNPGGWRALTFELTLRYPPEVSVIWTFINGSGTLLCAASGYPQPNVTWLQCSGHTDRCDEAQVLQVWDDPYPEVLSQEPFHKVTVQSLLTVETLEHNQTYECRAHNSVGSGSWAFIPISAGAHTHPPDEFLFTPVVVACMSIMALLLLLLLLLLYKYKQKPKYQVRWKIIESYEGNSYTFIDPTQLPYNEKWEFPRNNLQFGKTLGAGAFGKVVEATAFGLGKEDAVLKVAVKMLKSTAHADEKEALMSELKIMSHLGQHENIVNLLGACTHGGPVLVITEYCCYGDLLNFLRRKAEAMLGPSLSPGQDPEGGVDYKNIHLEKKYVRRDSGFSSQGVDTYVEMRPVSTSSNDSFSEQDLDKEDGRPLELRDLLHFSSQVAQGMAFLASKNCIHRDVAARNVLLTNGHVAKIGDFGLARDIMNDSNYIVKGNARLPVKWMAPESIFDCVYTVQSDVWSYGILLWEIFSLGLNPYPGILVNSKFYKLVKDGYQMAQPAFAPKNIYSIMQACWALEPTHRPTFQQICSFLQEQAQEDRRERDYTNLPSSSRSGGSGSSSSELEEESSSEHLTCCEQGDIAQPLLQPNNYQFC
UniProt P41240: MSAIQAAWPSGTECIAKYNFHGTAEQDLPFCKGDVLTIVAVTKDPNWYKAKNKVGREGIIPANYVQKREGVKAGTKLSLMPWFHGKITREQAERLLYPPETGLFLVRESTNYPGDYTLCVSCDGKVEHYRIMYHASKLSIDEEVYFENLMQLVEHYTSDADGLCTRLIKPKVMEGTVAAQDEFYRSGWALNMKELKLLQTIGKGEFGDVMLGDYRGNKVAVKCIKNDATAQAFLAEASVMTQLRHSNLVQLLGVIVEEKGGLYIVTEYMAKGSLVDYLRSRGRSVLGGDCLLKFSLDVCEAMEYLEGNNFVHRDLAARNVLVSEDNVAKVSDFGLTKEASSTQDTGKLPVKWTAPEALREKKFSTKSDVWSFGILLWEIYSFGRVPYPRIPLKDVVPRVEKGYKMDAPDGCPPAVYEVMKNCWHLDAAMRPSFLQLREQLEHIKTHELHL
UniProt P48730: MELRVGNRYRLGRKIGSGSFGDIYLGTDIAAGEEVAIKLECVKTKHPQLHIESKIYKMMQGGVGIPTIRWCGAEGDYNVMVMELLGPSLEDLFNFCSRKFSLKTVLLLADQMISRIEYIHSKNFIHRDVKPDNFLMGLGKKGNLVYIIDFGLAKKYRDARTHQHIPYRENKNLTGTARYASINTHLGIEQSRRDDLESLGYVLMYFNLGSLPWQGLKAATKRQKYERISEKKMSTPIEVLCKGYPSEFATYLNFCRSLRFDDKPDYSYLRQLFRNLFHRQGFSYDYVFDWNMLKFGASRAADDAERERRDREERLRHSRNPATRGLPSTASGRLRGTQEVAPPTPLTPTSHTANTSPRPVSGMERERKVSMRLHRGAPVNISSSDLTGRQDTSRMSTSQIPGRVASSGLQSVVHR
UniProt Q08345: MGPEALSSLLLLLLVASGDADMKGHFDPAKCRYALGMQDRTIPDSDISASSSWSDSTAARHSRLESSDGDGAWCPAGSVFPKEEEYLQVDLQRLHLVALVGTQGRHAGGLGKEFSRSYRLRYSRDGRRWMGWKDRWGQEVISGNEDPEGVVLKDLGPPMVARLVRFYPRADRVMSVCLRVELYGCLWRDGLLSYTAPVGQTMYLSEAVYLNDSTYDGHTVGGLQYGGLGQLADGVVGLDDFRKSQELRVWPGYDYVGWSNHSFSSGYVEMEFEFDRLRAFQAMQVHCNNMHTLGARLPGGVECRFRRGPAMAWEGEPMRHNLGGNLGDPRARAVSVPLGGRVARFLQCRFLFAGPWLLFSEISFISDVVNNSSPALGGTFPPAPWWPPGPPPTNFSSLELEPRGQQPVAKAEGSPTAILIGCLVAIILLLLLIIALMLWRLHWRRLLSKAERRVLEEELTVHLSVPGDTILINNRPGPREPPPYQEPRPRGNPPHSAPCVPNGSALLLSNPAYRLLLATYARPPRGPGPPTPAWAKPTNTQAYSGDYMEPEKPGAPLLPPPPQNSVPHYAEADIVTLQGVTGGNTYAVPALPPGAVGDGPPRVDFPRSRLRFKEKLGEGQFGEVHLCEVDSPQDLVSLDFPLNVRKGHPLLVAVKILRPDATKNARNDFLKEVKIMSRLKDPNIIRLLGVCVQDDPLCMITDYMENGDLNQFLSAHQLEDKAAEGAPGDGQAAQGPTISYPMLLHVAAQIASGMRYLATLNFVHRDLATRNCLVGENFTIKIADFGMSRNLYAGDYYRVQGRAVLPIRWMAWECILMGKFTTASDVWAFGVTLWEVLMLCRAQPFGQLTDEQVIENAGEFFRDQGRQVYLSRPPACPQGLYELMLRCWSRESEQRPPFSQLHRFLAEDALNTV
UniProt Q9Y463, whole entry, looked up: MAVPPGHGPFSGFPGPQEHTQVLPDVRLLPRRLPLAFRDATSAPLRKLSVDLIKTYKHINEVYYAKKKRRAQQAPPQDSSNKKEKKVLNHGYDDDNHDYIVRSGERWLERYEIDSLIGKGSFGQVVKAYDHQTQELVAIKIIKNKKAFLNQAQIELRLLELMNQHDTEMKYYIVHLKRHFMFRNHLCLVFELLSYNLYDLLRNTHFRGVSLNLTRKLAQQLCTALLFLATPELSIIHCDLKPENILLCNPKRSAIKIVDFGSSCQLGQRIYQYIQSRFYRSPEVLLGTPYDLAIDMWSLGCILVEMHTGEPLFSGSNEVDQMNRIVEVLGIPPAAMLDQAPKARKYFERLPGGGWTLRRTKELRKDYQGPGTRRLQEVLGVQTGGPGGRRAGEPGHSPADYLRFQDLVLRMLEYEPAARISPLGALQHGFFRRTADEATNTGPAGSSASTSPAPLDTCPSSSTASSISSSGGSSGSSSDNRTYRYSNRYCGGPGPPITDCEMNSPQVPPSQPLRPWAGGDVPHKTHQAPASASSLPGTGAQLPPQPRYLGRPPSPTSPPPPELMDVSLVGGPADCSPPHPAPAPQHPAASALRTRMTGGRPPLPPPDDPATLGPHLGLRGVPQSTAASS
UniProt P29317, whole entry: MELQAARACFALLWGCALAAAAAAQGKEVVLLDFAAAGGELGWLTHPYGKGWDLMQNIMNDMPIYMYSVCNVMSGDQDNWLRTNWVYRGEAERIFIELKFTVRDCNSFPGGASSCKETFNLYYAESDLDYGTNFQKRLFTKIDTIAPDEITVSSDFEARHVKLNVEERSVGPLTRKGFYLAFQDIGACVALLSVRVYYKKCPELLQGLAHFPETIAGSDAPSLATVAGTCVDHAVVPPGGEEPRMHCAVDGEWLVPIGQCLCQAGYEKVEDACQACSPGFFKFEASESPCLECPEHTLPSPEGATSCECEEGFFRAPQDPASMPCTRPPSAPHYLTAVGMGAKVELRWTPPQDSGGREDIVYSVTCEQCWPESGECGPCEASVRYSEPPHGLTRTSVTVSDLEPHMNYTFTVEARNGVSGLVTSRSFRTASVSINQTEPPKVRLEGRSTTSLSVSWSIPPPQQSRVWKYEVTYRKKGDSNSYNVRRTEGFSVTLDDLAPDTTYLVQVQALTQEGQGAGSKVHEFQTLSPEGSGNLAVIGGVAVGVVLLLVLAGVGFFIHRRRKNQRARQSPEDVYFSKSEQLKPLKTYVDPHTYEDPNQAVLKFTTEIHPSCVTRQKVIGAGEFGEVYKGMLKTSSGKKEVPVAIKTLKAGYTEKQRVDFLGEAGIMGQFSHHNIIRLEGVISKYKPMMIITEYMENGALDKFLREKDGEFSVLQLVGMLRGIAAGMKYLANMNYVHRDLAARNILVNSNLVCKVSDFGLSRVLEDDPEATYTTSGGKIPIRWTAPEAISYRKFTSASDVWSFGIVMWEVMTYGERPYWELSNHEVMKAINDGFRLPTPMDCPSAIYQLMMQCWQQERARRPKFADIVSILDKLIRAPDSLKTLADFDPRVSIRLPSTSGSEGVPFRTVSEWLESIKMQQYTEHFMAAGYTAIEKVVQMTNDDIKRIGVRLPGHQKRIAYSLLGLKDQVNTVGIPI
UniProt Q15303, whole entry R711C: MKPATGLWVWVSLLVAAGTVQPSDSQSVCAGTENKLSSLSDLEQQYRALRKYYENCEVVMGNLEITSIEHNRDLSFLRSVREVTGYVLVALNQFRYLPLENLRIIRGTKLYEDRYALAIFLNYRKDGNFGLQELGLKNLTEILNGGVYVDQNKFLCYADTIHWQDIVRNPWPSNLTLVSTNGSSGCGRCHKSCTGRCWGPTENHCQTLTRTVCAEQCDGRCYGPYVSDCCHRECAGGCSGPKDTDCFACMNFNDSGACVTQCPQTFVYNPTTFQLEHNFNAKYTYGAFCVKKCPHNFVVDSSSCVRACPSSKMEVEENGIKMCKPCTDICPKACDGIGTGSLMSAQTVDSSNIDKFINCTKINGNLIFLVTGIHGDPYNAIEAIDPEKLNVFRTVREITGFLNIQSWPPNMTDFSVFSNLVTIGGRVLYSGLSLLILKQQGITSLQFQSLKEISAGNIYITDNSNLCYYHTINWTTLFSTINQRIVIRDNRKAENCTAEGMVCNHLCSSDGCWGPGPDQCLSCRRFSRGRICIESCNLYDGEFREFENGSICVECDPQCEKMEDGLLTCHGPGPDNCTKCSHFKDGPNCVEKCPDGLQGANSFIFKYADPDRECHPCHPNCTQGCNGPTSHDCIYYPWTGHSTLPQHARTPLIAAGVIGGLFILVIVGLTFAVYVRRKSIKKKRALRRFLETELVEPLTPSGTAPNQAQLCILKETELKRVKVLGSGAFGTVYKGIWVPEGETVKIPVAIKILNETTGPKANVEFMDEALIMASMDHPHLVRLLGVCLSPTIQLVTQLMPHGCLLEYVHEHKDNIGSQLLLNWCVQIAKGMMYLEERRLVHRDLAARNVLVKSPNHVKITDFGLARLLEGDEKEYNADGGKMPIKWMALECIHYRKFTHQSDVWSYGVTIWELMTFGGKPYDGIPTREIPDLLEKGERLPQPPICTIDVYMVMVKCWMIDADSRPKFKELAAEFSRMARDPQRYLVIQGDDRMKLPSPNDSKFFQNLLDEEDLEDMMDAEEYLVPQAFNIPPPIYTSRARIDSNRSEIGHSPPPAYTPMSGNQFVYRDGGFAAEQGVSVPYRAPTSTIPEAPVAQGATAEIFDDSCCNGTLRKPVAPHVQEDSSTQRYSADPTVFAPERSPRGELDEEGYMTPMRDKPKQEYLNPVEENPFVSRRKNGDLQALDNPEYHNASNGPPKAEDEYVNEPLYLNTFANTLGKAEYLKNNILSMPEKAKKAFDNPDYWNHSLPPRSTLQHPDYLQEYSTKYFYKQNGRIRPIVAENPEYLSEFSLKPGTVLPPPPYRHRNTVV

Tests used:
Test in all cases: kinase-Nluc reporter destabilization hit call (1 = scored as downregulated) (binary); higher = compound decreases kinase abundance
Conditions in all cases: K562; 2-18 h
CDK7 = CDK7 (UniProt P50613)
CDK9 = CDK9 (UniProt P50750)
CHEK2 = CHEK2 (UniProt O96017)
CSF1R = CSF1R (UniProt P07333)
CSK = CSK (UniProt P41240)
CSNK1A1 = CSNK1A1 (UniProt P48729)
CSNK1D = CSNK1D (UniProt P48730)
DDR1 = DDR1 (UniProt Q08345)
DYRK1B = DYRK1B (UniProt Q9Y463)
DYRK2 = DYRK2 (UniProt Q92630)
EGFR = EGFR (UniProt P00533)
EGFR_G719S = EGFR_G719S (UniProt P00533)
EGFR_G719S_T790M = EGFR_G719S_T790M (UniProt P00533)
EGFR_L718V = EGFR_L718V (UniProt P00533)
EGFR_L858R = EGFR_L858R (UniProt P00533)
EGFR_L861Q = EGFR_L861Q (UniProt P00533)
EGFR_T790M = EGFR_T790M (UniProt P00533)
EPHA2 = EPHA2 (UniProt P29317)
ERBB3 = ERBB3 (UniProt P21860)
[1] = target: ERBB4_R711C (clone: ERBB4_mut) (UniProt Q15303)

Measured: kinase-Nluc reporter destabilization hit call

O=C(Nc1ccnc(NC(=O)C2CC2)c1)c1c(Cl)cccc1Cl (10 µM)
inactive: CDK7 = 0 | CDK9 = 0 | CHEK2 = 0 | CSF1R 0 | CSK 0 | CSNK1A1 = 0 | CSNK1D 0 | DDR1 = 0 | DYRK1B 0 | DYRK2 = 0 | EGFR 0 | EGFR_G719S 0 | EGFR_G719S_T790M 0 | EGFR_L718V 0 | EGFR_L858R 0 | EGFR_L861Q 0 | EGFR_T790M 0 | EPHA2 = 0 | ERBB3 = 0 | [1] 0

Cc1cc2c(F)c(Oc3ncnn4cc(OC[C@@H](C)OC(=O)[C@H](C)N)c(C)c34)ccc2[nH]1 [Brivanib (alaninate)] (10 µM)
inactive: CDK7 = 0 | CDK9 = 0 | CHEK2 = 0 | CSF1R 0 | CSK 0 | CSNK1A1 = 0 | CSNK1D 0 | DDR1 = 0 | DYRK1B 0 | DYRK2 = 0 | EGFR 0 | EGFR_G719S 0 | EGFR_G719S_T790M 0 | EGFR_L718V 0 | EGFR_L858R 0 | EGFR_L861Q 0 | EGFR_T790M 0 | EPHA2 = 0 | ERBB3 = 0 | [1] 0

O=C(Nc1ccc(Cl)cc1)C1CN(C(=O)c2cccc(-c3ccco3)c2)CC(F)(F)C1 (stereo not given) (2.5 µM)
inactive: CDK7 = 0 | CDK9 = 0 | CHEK2 = 0 | CSF1R 0 | CSK 0 | CSNK1A1 = 0 | CSNK1D 0 | DDR1 = 0 | DYRK1B 0 | DYRK2 = 0 | EGFR 0 | EGFR_G719S 0 | EGFR_G719S_T790M 0 | EGFR_L718V 0 | EGFR_L858R 0 | EGFR_L861Q 0 | EGFR_T790M 0 | EPHA2 = 0 | ERBB3 = 0 | [1] 0

CCn1c(N)c(C(=O)NC)c(=O)c2ccc(C#CC(C)(O)COC)nc21 (stereo not given) (10 µM)
inactive: CDK7 = 0 | CDK9 = 0 | CHEK2 = 0 | CSF1R 0 | CSK 0 | CSNK1A1 = 0 | CSNK1D 0 | DDR1 = 0 | DYRK1B 0 | DYRK2 = 0 | EGFR 0 | EGFR_G719S 0 | EGFR_G719S_T790M 0 | EGFR_L718V 0 | EGFR_L858R 0 | EGFR_L861Q 0 | EGFR_T790M 0 | EPHA2 = 0 | ERBB3 = 0 | [1] 0

O=C(COc1ccc(Cl)cc1)NC1CCC(NC(=O)COc2ccc(Cl)cc2)CC1 (stereo not drawn) [ISRIB (trans-isomer)] (10 µM)
inactive: CDK7 = 0 | CDK9 = 0 | CHEK2 = 0 | CSF1R 0 | CSK 0 | CSNK1A1 = 0 | CSNK1D 0 | DDR1 = 0 | DYRK1B 0 | DYRK2 = 0 | EGFR 0 | EGFR_G719S 0 | EGFR_G719S_T790M 0 | EGFR_L718V 0 | EGFR_L858R 0 | EGFR_L861Q 0 | EGFR_T790M 0 | EPHA2 = 0 | ERBB3 = 0 | [1] 0

N#CC(=C(/N)Sc1ccccc1N)/C(C#N)=C(\N)Sc1ccccc1N (10 µM)
inactive: CDK7 = 0 | CDK9 = 0 | CHEK2 = 0 | CSF1R 0 | CSK 0 | CSNK1A1 = 0 | CSNK1D 0 | DDR1 = 0 | DYRK1B 0 | DYRK2 = 0 | EGFR 0 | EGFR_G719S 0 | EGFR_G719S_T790M 0 | EGFR_L718V 0 | EGFR_L858R 0 | EGFR_L861Q 0 | EGFR_T790M 0 | EPHA2 = 0 | ERBB3 = 0 | [1] 0

CO[C@@H]1[C@H](N(C)C(=O)c2ccccc2)C[C@H]2O[C@]1(C)n1c3ccccc3c3c4c(c5c6ccccc6n2c5c31)C(=O)NC4 [Midostaurin] (2.5 µM)
inactive: CDK7 = 0 | CDK9 = 0 | CHEK2 = 0 | CSF1R 0 | CSK 0 | CSNK1A1 = 0 | CSNK1D 0 | DDR1 = 0 | DYRK1B 0 | DYRK2 = 0 | EGFR 0 | EGFR_G719S 0 | EGFR_G719S_T790M 0 | EGFR_L718V 0 | EGFR_L858R 0 | EGFR_L861Q 0 | EGFR_T790M 0 | EPHA2 = 0 | ERBB3 = 0 | [1] 0

CC(C)Cn1ncc2cc(Oc3ccc(F)cc3F)c(C(=O)NCCN(C)C)cc21 [p38α inhibitor 1] (10 µM)
inactive: CDK7 = 0 | CDK9 = 0 | CHEK2 = 0 | CSF1R 0 | CSK 0 | CSNK1A1 = 0 | CSNK1D 0 | DDR1 = 0 | DYRK1B 0 | DYRK2 = 0 | EGFR 0 | EGFR_G719S 0 | EGFR_G719S_T790M 0 | EGFR_L718V 0 | EGFR_L858R 0 | EGFR_L861Q 0 | EGFR_T790M 0 | EPHA2 = 0 | ERBB3 = 0 | [1] 0

CCOc1cc(N2CCC(O)CC2)ccc1Nc1ncc2c(n1)N(C1CCCC1)CCC(=O)N2C (2.5 µM)
inactive: CDK7 = 0 | CDK9 = 0 | CHEK2 = 0 | CSF1R 0 | CSK 0 | CSNK1A1 = 0 | CSNK1D 0 | DDR1 = 0 | DYRK1B 0 | DYRK2 = 0 | EGFR 0 | EGFR_G719S 0 | EGFR_G719S_T790M 0 | EGFR_L718V 0 | EGFR_L858R 0 | EGFR_L861Q 0 | EGFR_T790M 0 | EPHA2 = 0 | ERBB3 = 0 | [1] 0

NC(=O)c1ccccc1Nc1ccnc(Nc2cccc(O)c2)n1 (10 µM)
inactive: CDK7 = 0 | CDK9 = 0 | CHEK2 = 0 | CSF1R 0 | CSK 0 | CSNK1A1 = 0 | CSNK1D 0 | DDR1 = 0 | DYRK1B 0 | DYRK2 = 0 | EGFR 0 | EGFR_G719S 0 | EGFR_G719S_T790M 0 | EGFR_L718V 0 | EGFR_L858R 0 | EGFR_L861Q 0 | EGFR_T790M 0 | EPHA2 = 0 | ERBB3 = 0 | [1] 0

Nc1nc(Nc2ccc3c(c2)CC[C@@H](N2CCCC2)CC3)nn1-c1cc2c(nn1)-c1ccccc1CCC2 [Bemcentinib] (2.5 µM)
inactive: CDK7 = 0 | CDK9 = 0 | CHEK2 = 0 | CSF1R 0 | CSK 0 | CSNK1A1 = 0 | CSNK1D 0 | DDR1 = 0 | DYRK1B 0 | DYRK2 = 0 | EGFR 0 | EGFR_G719S 0 | EGFR_G719S_T790M 0 | EGFR_L718V 0 | EGFR_L858R 0 | EGFR_L861Q 0 | EGFR_T790M 0 | EPHA2 = 0 | ERBB3 = 0 | [1] 0

CNCc1ccccc1Sc1cccc2ccccc12 [IFN alpha-IFNAR-IN-1 (hydrochloride)] (10 µM)
inactive: CDK7 = 0 | CDK9 = 0 | CHEK2 = 0 | CSF1R 0 | CSK 0 | CSNK1A1 = 0 | CSNK1D 0 | DDR1 = 0 | DYRK1B 0 | DYRK2 = 0 | EGFR 0 | EGFR_G719S 0 | EGFR_G719S_T790M 0 | EGFR_L718V 0 | EGFR_L858R 0 | EGFR_L861Q 0 | EGFR_T790M 0 | EPHA2 = 0 | ERBB3 = 0 | [1] 0

COc1cc2nc(-c3cc(F)ccc3O)nc(N[C@@H]3CNC[C@H]3C(C)(C)O)c2cc1OC (2.5 µM)
inactive: CDK7 = 0 | CDK9 = 0 | CHEK2 = 0 | CSF1R 0 | CSK 0 | CSNK1A1 = 0 | CSNK1D 0 | DDR1 = 0 | DYRK1B 0 | DYRK2 = 0 | EGFR 0 | EGFR_G719S 0 | EGFR_G719S_T790M 0 | EGFR_L718V 0 | EGFR_L858R 0 | EGFR_L861Q 0 | EGFR_T790M 0 | EPHA2 = 0 | ERBB3 = 0 | [1] 0

CNC(=O)CN1CCC(Oc2cc3c(Nc4cccc(Cl)c4F)ncnc3cc2OC)CC1 [Sapitinib] (10 µM)
inactive: CDK7 = 0 | CDK9 = 0 | CHEK2 = 0 | CSF1R 0 | CSK 0 | CSNK1A1 = 0 | CSNK1D 0 | DDR1 = 0 | DYRK1B 0 | DYRK2 = 0 | EGFR 0 | EGFR_G719S 0 | EGFR_G719S_T790M 0 | EGFR_L718V 0 | EGFR_L858R 0 | EGFR_L861Q 0 | EGFR_T790M 0 | EPHA2 = 0 | ERBB3 = 0 | [1] 0

COc1cccc(-c2cc(=O)c3ccccc3o2)c1N (10 µM)
inactive: CDK7 = 0 | CDK9 = 0 | CHEK2 = 0 | CSF1R 0 | CSK 0 | CSNK1A1 = 0 | CSNK1D 0 | DDR1 = 0 | DYRK1B 0 | DYRK2 = 0 | EGFR 0 | EGFR_G719S 0 | EGFR_G719S_T790M 0 | EGFR_L718V 0 | EGFR_L858R 0 | EGFR_L861Q 0 | EGFR_T790M 0 | EPHA2 = 0 | ERBB3 = 0 | [1] 0

Cc1n[nH]c2ncc(C(=O)N3CCC[C@H]3c3ccc(Cl)cc3)cc12 (10 µM)
inactive: CDK7 = 0 | CDK9 = 0 | CHEK2 = 0 | CSF1R 0 | CSK 0 | CSNK1A1 = 0 | CSNK1D 0 | DDR1 = 0 | DYRK1B 0 | DYRK2 = 0 | EGFR 0 | EGFR_G719S 0 | EGFR_G719S_T790M 0 | EGFR_L718V 0 | EGFR_L858R 0 | EGFR_L861Q 0 | EGFR_T790M 0 | EPHA2 = 0 | ERBB3 = 0 | [1] 0

COc1ccc(Br)c(C=O)c1O [6-Bromo-2-hydroxy-3-methoxybenzaldehyde] (10 µM)
inactive: CDK7 = 0 | CDK9 = 0 | CHEK2 = 0 | CSF1R 0 | CSK 0 | CSNK1A1 = 0 | CSNK1D 0 | DDR1 = 0 | DYRK1B 0 | DYRK2 = 0 | EGFR 0 | EGFR_G719S 0 | EGFR_G719S_T790M 0 | EGFR_L718V 0 | EGFR_L858R 0 | EGFR_L861Q 0 | EGFR_T790M 0 | EPHA2 = 0 | ERBB3 = 0 | [1] 0
